# This is one part of the list.
# Amino acid sequences for entries named in this document (tags omitted). A change or cut given only in a name is not applied to a line headed by its entry.
# UniProt O15042: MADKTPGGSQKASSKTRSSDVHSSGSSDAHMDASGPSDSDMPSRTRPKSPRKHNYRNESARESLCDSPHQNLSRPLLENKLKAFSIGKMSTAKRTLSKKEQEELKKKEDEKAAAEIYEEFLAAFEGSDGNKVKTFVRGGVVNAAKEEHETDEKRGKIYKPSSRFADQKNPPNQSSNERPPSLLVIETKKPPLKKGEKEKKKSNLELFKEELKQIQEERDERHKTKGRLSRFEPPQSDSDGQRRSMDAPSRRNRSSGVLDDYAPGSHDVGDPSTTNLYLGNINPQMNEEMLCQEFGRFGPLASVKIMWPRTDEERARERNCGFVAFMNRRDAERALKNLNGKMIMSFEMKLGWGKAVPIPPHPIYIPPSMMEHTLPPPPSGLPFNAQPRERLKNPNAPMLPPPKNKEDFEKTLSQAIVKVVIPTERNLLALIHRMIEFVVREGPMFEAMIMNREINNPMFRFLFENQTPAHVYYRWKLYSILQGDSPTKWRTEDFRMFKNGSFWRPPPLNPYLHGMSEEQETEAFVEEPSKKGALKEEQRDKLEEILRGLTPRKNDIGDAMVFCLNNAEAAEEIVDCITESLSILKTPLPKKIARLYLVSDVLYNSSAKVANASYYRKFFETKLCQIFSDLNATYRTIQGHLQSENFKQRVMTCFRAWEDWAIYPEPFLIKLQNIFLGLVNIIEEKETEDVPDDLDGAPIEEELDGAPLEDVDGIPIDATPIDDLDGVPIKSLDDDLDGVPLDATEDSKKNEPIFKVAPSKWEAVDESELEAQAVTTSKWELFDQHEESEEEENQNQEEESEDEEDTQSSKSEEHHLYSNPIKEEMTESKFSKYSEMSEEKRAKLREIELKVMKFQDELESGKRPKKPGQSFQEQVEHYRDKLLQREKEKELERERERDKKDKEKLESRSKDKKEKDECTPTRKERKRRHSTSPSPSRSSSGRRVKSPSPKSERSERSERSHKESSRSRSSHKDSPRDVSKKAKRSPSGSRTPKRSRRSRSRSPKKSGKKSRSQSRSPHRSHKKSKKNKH
# UniProt P51668: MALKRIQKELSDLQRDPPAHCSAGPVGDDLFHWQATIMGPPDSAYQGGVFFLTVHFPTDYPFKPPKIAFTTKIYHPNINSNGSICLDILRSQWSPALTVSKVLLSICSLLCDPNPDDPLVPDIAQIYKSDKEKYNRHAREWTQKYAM
# UniProt Q9GZZ9, whole entry, looked up: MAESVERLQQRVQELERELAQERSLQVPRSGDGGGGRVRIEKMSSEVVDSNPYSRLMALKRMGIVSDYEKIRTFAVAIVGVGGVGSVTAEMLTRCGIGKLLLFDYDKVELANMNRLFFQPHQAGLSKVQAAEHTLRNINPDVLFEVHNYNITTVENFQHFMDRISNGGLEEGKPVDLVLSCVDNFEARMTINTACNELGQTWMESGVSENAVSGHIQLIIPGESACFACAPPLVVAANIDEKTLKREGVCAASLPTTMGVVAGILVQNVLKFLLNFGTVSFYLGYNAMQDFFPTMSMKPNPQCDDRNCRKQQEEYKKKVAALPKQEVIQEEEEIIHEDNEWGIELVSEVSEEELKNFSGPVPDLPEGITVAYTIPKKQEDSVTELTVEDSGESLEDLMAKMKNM
# UniProt Q99757: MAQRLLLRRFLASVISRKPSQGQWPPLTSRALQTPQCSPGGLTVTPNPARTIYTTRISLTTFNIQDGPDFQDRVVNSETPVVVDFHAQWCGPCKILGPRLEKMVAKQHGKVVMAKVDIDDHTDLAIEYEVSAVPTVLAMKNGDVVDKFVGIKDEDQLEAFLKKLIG
# UniProt Q99598: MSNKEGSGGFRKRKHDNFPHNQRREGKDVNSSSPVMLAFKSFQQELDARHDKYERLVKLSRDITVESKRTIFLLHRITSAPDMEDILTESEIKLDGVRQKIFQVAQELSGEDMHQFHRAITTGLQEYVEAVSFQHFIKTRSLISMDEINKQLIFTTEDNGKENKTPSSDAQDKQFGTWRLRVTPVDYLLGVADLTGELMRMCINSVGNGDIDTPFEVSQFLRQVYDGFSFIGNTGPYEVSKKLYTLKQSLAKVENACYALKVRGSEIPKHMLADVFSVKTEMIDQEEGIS
# UniProt O95881: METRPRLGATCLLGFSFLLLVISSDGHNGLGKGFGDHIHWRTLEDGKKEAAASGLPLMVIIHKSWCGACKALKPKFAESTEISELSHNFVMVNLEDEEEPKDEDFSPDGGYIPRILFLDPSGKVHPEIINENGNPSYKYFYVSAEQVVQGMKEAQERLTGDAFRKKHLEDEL
# UniProt Q5JXB2: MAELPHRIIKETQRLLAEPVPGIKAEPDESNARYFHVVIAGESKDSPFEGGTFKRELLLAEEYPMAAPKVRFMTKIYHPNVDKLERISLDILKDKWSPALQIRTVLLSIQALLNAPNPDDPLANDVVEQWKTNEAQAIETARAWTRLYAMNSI
# UniProt A6NHL2: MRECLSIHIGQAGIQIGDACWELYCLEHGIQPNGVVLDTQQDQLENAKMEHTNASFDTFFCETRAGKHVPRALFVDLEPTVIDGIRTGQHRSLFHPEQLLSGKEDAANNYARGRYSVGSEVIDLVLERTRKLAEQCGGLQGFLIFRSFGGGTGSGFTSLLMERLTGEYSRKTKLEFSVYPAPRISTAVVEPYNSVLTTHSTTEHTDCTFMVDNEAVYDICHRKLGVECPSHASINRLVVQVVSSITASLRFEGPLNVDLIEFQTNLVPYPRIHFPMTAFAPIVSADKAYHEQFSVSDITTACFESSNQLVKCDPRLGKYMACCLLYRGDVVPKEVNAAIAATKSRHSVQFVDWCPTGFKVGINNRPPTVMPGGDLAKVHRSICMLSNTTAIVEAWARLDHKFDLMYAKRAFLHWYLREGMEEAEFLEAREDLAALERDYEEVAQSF
# UniProt Q5T6F2: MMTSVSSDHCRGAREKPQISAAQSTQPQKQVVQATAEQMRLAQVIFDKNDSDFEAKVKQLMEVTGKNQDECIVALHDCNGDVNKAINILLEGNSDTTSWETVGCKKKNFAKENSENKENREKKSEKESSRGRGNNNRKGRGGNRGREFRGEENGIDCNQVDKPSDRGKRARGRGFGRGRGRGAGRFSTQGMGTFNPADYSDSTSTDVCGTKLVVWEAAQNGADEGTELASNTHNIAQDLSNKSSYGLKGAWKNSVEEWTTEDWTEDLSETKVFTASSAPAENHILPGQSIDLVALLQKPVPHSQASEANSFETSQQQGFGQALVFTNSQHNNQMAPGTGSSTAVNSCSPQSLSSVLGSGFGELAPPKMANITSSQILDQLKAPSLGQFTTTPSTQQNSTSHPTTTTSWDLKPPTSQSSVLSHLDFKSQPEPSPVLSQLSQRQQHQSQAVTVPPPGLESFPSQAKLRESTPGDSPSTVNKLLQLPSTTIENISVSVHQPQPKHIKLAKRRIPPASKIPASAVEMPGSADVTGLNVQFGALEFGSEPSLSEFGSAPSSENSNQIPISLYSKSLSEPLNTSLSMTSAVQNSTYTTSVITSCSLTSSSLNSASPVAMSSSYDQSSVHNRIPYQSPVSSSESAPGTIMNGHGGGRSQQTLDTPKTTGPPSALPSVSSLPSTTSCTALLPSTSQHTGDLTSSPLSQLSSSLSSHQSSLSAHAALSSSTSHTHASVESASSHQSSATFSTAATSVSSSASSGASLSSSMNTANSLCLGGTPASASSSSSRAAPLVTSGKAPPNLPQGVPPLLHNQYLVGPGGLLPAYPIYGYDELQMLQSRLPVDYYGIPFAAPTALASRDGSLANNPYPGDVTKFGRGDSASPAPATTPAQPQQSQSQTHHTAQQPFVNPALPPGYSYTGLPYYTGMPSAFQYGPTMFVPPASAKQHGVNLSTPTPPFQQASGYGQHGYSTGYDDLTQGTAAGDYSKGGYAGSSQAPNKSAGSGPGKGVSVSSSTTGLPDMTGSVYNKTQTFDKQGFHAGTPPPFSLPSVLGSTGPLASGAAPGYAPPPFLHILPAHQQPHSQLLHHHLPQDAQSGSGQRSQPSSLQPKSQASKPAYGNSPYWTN
# UniProt P43897: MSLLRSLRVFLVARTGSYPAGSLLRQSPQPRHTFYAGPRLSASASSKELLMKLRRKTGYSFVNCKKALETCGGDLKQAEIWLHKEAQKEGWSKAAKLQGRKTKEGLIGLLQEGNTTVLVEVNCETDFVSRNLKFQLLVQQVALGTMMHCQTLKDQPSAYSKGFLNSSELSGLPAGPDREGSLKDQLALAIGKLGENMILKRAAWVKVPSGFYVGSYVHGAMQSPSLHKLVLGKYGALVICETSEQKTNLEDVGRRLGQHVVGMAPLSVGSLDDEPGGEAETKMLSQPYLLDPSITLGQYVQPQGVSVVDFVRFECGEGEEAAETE
# UniProt Q9C0C9: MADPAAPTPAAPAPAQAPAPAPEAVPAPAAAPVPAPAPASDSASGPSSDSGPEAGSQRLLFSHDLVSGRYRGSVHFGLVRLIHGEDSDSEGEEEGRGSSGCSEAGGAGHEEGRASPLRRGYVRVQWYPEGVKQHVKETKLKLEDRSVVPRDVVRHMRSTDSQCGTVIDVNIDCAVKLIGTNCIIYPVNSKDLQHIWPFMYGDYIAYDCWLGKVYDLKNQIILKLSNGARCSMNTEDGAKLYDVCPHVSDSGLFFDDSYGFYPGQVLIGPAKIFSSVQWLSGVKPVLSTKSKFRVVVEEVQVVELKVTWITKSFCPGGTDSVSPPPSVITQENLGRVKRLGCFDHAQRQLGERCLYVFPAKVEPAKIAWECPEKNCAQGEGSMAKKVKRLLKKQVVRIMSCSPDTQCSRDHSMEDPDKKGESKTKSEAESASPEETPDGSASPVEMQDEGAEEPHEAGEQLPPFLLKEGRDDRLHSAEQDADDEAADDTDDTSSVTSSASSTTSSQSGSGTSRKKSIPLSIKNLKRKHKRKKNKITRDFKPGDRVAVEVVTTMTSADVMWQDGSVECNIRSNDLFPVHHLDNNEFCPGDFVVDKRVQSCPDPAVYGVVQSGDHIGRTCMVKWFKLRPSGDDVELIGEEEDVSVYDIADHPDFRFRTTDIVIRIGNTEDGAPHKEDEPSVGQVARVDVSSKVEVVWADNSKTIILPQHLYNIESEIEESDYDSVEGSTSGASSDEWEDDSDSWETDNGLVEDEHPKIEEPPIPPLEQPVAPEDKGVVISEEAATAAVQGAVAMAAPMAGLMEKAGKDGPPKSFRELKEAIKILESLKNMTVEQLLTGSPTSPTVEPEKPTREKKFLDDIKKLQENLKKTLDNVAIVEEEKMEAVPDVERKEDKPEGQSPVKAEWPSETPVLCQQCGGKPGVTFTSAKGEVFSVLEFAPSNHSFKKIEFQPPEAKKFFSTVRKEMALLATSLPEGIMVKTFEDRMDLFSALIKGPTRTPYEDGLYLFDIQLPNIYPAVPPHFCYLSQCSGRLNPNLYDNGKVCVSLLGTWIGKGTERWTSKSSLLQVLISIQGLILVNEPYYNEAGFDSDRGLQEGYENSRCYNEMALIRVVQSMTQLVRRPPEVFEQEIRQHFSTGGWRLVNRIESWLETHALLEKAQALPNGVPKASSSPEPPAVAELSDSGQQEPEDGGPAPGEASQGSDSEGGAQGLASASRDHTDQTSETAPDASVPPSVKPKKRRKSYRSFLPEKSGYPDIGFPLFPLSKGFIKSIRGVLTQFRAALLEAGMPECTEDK
# UniProt Q9Y5U2: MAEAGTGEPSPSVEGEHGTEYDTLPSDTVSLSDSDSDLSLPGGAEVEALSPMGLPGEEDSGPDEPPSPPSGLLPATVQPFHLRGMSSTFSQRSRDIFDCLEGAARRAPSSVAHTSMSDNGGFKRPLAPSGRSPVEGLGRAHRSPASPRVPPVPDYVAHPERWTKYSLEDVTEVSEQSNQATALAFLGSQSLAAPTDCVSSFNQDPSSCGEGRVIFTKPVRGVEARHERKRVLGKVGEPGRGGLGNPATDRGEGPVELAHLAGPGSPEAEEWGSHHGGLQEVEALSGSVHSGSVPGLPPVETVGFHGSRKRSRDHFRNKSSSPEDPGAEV
# UniProt Q8N5M4: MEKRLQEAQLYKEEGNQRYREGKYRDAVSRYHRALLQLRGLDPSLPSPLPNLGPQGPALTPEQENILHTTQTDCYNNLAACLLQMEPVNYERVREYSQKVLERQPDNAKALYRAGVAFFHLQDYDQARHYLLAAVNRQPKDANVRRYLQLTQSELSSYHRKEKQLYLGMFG
# UniProt Q9Y385: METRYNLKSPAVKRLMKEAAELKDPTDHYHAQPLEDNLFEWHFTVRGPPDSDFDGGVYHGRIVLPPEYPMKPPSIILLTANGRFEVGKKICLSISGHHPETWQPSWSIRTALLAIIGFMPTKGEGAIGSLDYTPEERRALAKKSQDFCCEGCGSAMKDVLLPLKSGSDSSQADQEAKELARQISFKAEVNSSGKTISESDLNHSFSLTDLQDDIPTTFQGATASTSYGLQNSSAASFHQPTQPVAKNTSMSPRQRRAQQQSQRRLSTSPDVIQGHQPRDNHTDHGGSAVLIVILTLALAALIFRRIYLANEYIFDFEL
# UniProt P63146, whole entry, looked up: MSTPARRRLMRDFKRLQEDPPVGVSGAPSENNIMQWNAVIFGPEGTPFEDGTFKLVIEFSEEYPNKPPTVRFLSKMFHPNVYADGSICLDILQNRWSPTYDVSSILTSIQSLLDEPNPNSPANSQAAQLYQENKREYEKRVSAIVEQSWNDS
# Tests used:
# Experiment in all cases: log2 fold change, soluble protein after heating vs DMSO (PISA); higher = thermal stabilisation; K562 cells, 10 uM, 30 min; active = over 0.2 and 3.5 SD of the protein, either way, in both replicates (recomputed)
# [1] = compound: C1=CC=C(C=C1)[C@H](COC2=CC3=C(C=C2)NC(=O)N3)NC(=O)C4=CC=CN(C4=O)CC5=CC(=C(C=C5)F)F
# Outline: (§1)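 K562 cells at 2×10^6 cells/mL were exposed to 10 μM compound for 30 min, then aliquots were heated for 3 min across 48°C-58°C, pooled, and extracted in PBS containing 0.5% NP-40 at 4°C. The supernatant after 21,000xg for 90 min was taken as soluble protein and measured by TMTpro 16plex LC-MS/MS with channel sums equalised. Thermal stability is reported relative to control samples, with values from duplicates. Fold changes are given on a log2 scale.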
# [2] = compound: CC1=C(SC2=C1C(=N[C@H](C3=NN=C(N32)C)CC(=O)N)C4=CC=C(C=C4)Cl)C
# Outline: as §1
# [3] = compound: CC1=C2C(=CC=C1)N=C(N(C2=O)C3=CC=CC=C3C)CN4C=NC5=C(N=CN=C54)N
# Outline: as §1
# [4] = compound: Cc1sc2c(c1C)C(c1ccc(Cl)cc1)=N[C@@H](CC(=O)OC(C)(C)C)c1nnc(C)n1-2
# Outline: as §1
# [5] = compound: c1ccc([C@@H]2C[C@H]2NC2CCNCC2)cc1
# Outline: as §1
Target,log2 fold change [1],log2 fold change [2],log2 fold change [3],log2 fold change [4],log2 fold change [5]
TTLL12 (UniProt Q14166),inactive: 0.164,inactive: -0.029,inactive: -0.147,inactive: 0.198,inactive: 0
U2SURP (UniProt O15042),inactive: 0.007,inactive: -0.023,inactive: 0.084,inactive: 0.071,inactive: 0.007
TXNIP (UniProt Q9H3M7),inactive: -0.011,inactive: 0.148,inactive: -0.012,inactive: -0.039,inactive: -0.099
UBE2N (UniProt P61088),inactive: -0.065,inactive: 0.064,inactive: 0.116,inactive: -0.115,inactive: -0.025
TXNDC15 (UniProt Q96J42),inactive: 0.008,inactive: 0.336,inactive: -0.086,inactive: -0.197,inactive: 0.018
UBE2D1 (UniProt P51668),inactive: -0.053,inactive: -0.014,inactive: 0.065,inactive: -0.081,inactive: -0.035
TUFM (UniProt P49411),inactive: -0.031,inactive: 0.106,inactive: 0.093,inactive: 0.003,inactive: -0.058
UBA5 (UniProt Q9GZZ9),inactive: -0.032,inactive: 0.014,inactive: 0.03,inactive: -0.003,inactive: 0.003
TUBB4B (UniProt P68371),inactive: 0.006,inactive: 0.067,inactive: -0.018,inactive: -0.029,inactive: -0.036
TXN2 (UniProt Q99757),inactive: 0.027,inactive: 0.144,inactive: 0.039,inactive: -0.079,inactive: -0.067
TUT4 (UniProt Q5TAX3),inactive: -0.029,inactive: -0.181,inactive: 0.214,inactive: -0.052,inactive: 0.153
TSNAX (UniProt Q99598),inactive: 0.024,inactive: 0.008,inactive: 0.006,inactive: -0.008,inactive: 0.021
UBE2J2 isoform 3 (UniProt Q8N2K1),inactive: 0.003,inactive: 0.078,inactive: -0.106,inactive: -0.014,inactive: -0.144
TUBA4A (UniProt C9JJQ8),inactive: -0.081,inactive: 0.036,inactive: 0,inactive: -0.011,inactive: 0.229
UBE2K (UniProt P61086),inactive: -0.037,inactive: 0.014,inactive: 0.005,inactive: -0.031,inactive: 0.002
TXNDC12 (UniProt O95881),inactive: 0.025,inactive: -0.027,inactive: -0.064,inactive: 0.004,inactive: 0.014
UBA2 (UniProt Q9UBT2),inactive: -0.006,inactive: 0.034,inactive: 0.079,inactive: -0.013,inactive: -0.024
TTC4 (UniProt O95801),inactive: -0.089,inactive: -0.008,inactive: 0.099,inactive: 0.022,inactive: -0.029
UBE2NL (UniProt Q5JXB2),inactive: -0.031,inactive: 0.119,inactive: 0.061,inactive: -0.12,inactive: -0.02
TUBAL3 (UniProt A6NHL2),inactive: -0.196,inactive: -0.012,inactive: 0.096,inactive: -0.051,inactive: 0.029
UBAP2 (UniProt Q5T6F2),inactive: 0.021,inactive: 0.003,inactive: -0.015,inactive: 0.017,inactive: 0.043
UBE3A (UniProt Q05086),inactive: -0.017,inactive: 0.048,inactive: 0.022,inactive: -0.015,inactive: -0.025
TSFM (UniProt P43897),inactive: -0.17,inactive: 0.03,inactive: 0.177,inactive: -0.138,inactive: 0.012
TTC1 (UniProt Q99614),inactive: 0.007,inactive: -0.016,inactive: -0.012,inactive: -0.008,inactive: 0.013
TUBB8B (UniProt A6NNZ2),inactive: -0.028,inactive: 0.051,inactive: 0.088,inactive: -0.083,inactive: -0.042
TUBB6 (UniProt Q9BUF5),inactive: 0.002,inactive: 0.041,inactive: 0.005,inactive: -0.023,inactive: -0.001
TUSC3 isoform 2 (UniProt Q13454),inactive: 0.173,inactive: -0.033,inactive: 0.008,inactive: 0.105,inactive: 0.051

# Record cards, as listed above. Order of values: log2 fold change [1] | log2 fold change [2] | log2 fold change [3] | log2 fold change [4] | log2 fold change [5]
# TUBAL3 (UniProt A6NHL2) as listed: inactive: -0.196 | inactive: -0.012 | inactive: 0.096 | inactive: -0.051 | inactive: 0.029
# TUBA4A (UniProt C9JJQ8) as listed: inactive: -0.081 | inactive: 0.036 | inactive: 0 | inactive: -0.011 | inactive: 0.229

# Following part.

Target,log2 fold change [1],log2 fold change [2],log2 fold change [3],log2 fold change [4],log2 fold change [5]
UBE2O (UniProt Q9C0C9),inactive: 0.006,inactive: 0.072,inactive: 0.069,inactive: 0.004,inactive: -0.024
UBE2L3 isoform 3 (UniProt P68036),inactive: 0.015,inactive: 0.059,inactive: 0.011,inactive: -0.004,inactive: -0.019
UBE2H (UniProt P62256),inactive: 0.032,inactive: 0.044,inactive: 0.051,inactive: 0.05,inactive: 0.071
UBE2F isoform 2 (UniProt Q969M7),inactive: 0.015,inactive: 0.022,inactive: 0.003,inactive: -0.078,inactive: 0.063
UBAP2L isoform 5 (UniProt Q14157),inactive: 0.055,inactive: 0.036,inactive: 0,inactive: -0.016,inactive: 0.017
TSPAN14 (UniProt Q8NG11),inactive: -0.034,inactive: 0.086,inactive: 0.045,inactive: -0.003,inactive: 0.092
TUBA8 (UniProt Q9NY65),inactive: 0.107,inactive: -0.676,inactive: -0.194,inactive: 0.023,inactive: 0.031
TUBGCP2 isoform 4 (UniProt Q9BSJ2),inactive: 0.014,inactive: -0.219,inactive: -0.156,inactive: 0,inactive: 0.011
TXNL4B (UniProt Q9NX01),inactive: 0.1,inactive: 0.068,active: -0.537,inactive: -0.102,inactive: -0.12
TSTA3 (UniProt Q13630),inactive: -0.023,inactive: -0.012,inactive: 0.011,inactive: 0.012,inactive: 0.029
TSSC4 (UniProt Q9Y5U2),inactive: 0.002,inactive: -0.119,inactive: 0.015,inactive: 0.044,inactive: 0.03
TUBB1 (UniProt Q9H4B7),inactive: -0.012,inactive: 0.009,inactive: -0.007,inactive: -0.033,inactive: -0.043
TWISTNB (UniProt Q3B726),inactive: -0.36,inactive: 0.069,inactive: 0.185,inactive: 0.012,inactive: -0.066
UBAC1 (UniProt Q9BSL1),inactive: -0.03,inactive: 0.028,inactive: 0.05,inactive: 0.022,inactive: -0.032
TTC7B isoform 2 (UniProt Q86TV6),inactive: -0.367,inactive: -0.083,inactive: 0.099,inactive: -0.006,inactive: -0.12
TXLNA (UniProt P40222),inactive: -0.017,inactive: 0.021,inactive: 0.035,inactive: -0.021,inactive: -0.057
TXNL4A (UniProt P83876),inactive: -0.028,inactive: 0.019,inactive: 0.025,inactive: -0.002,inactive: 0.051
TTL (UniProt Q8NG68),inactive: -0.01,inactive: 0.08,inactive: 0.024,inactive: -0.051,inactive: -0.024
TTC9C (UniProt Q8N5M4),inactive: 0.018,inactive: 0.036,inactive: -0.013,inactive: -0.058,inactive: -0.041
UBE2J1 (UniProt Q9Y385),inactive: -0.061,inactive: -0.011,inactive: 0.05,inactive: -0.039,inactive: -0.068
TSPAN3 (UniProt O60637),inactive: -0.022,inactive: -0.391,inactive: 0.026,inactive: -0.087,inactive: 0.018
U2AF2 (UniProt P26368),inactive: -0.004,inactive: 0.057,inactive: 0.045,inactive: 0.044,inactive: 0.005
TYMS (UniProt P04818),inactive: 0.019,inactive: 0.026,inactive: -0.026,inactive: -0.077,inactive: -0.031
UAP1L1 (UniProt Q3KQV9),inactive: -0.033,inactive: 0.134,inactive: 0.034,inactive: 0.034,inactive: 0.002
UBE2B (UniProt P63146),inactive: 0.074,inactive: 0.13,inactive: 0.181,inactive: 0.025,inactive: -0.069
TUBB2A (UniProt Q13885),inactive: -0.066,inactive: -0.054,inactive: 0.028,inactive: -0.018,inactive: -0.042

# — the supplement of paper PMC10849652
